The target in assay [1] is T1, human MICB (human) (UniProt Q29980).
T1 sequence: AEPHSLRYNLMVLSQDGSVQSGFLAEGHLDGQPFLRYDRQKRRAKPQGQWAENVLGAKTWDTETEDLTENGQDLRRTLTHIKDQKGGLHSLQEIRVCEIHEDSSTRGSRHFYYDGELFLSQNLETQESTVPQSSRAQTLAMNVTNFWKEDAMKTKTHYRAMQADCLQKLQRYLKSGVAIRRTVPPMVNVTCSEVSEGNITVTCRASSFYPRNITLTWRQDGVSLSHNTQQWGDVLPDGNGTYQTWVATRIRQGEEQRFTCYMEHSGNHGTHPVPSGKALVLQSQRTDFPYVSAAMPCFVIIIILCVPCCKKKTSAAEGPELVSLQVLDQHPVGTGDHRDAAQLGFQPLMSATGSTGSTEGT
Description: co-IP; anti-MICB mAb immunoprecipitation from lysates of U373-MICB cells (RhCMV-infected or adenovector-transduced, 24 h) pulse-labelled 30 min with [35S]cysteine/[35S]methionine and chased 0-3 h; with or without EndoH; SDS-PAGE and autoradiography.

Assay [2] has as its target T1, human MICB (human). Description: co-IP; U373-MICB or U373-ULBP3 cells lysed 48 h post-transduction with AdRh159FL or FLAG-SVV ORF 61 adenovector; immunoprecipitation with anti-MICB or anti-ULBP3 antibodies, immunoblot with anti-FLAG mAb. (A western blot detects proteins with antibodies after separation by electrophoresis.)
In the next assay the target is T2, human ULBP3 (human) (UniProt Q9BZM5).
T2 sequence: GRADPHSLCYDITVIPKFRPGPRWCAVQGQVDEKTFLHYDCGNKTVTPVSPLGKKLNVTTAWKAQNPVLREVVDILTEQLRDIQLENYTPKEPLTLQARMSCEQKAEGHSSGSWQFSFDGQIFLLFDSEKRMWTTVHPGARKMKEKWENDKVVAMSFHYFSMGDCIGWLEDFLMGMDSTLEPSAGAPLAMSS
Described as above.

Results are given in words; binding and its absence hold for the method and conditions named. In cells and extracts the contact can be indirect. For part of these data: Binding can be weak; no strength is given.

Take “RhCMV Rh159 (expressed from RhCMV 68-1 in infected cells)”: the binding entry with human MICB (human) [1] is given as “binds”.
As for “FLAG-tagged Rh159 (AdRh159FL) (rhesus cytomegalovirus (RhCMV))”, the binding entry with human MICB (human) [2] was “binds”; with human ULBP3 (human), “no binding”; with human MICB (human) [1], “binds”.
Turning to “FLAG-tagged Simian varicella virus (SVV) open reading frame (ORF) 61”, the binding result with human MICB (human) [2] and with human ULBP3 (human) was “no binding” throughout.

The values are drawn from publication PMC5006984.
